Mtb cholesterol medium: 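Growth of Mycobacterium tuberculosis over 4 days (cholesterol / DPPC medium with tyloxapol); the read-out is not stated. Compounds at 500 µM. Direction is inferred from retests: higher values go with more growth inhibition. About 18,000 compounds were tested under these conditions; 5% (about 900) showed 50% or more at least once.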
Mtb glucose medium: 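Growth of Mycobacterium tuberculosis over 3 days (7H9 medium with glucose and tyloxapol); the read-out is not stated. Concentration: 500 µM. Higher reads as more growth inhibition (inferred: compounds with an IC50 in retests scored well above the rest). Size under these conditions: about 18,000 compounds, about 1,400 of them at 50% or above in at least one test.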

Results are given as percent effect. The controls that fix the scale are not given in the record; negative values are as filed. This is an unselected part of the compounds tested.

Compound,Mtb cholesterol medium,Mtb glucose medium
CN(C)Cc1ccnc(NCc2cc(C#N)cs2)c1,29.24,15.41
CCc1nnsc1C(=O)NCc1cc(C)no1,12.36,25.39
CCOC(=O)C1CCCN(c2nccnc2C#N)C1 (stereo unspecified),21.15,42.93
CC1COC2(CCN(C(=O)c3ccc(Cl)s3)CC2)O1 (stereo unspecified),83.24,86.38
CC1(C)C(=O)NCCN1C(=O)COC1CCCC1,-8.215,2.682
Cc1ccc(NC(=O)CNCCN2CCOCC2)cc1,9.545,10.68
COC(=O)C(NC(=O)CCc1ccncc1)C(C)(C)C (stereo unspecified),-3.288,11.57
CN(CCCN)C(=O)c1sccc1Br,6.878,14.83
CC(C)CC(CN)CO (stereo unspecified),-6.246,2.285
CN(C)CCCNC(=O)COc1ccccc1F,21.14,36.7
Cn1ccnc1C1CCNC1 (stereo unspecified),8.019,4.754
CCC(CC)C(O)CNC(=O)NCC1CC1 (stereo unspecified),20.35,29.01
Cc1ncsc1CCC(=O)NCCN1CCCC1,-3.386,-5.497
COCC1(C(=O)NCCNc2cccnc2)CCC1,10.89,10.23
CN(C)S(=O)(=O)NCC(O)c1cccc(C(F)(F)F)c1 (stereo unspecified),23.79,27.02
Cc1nn(C)c(Cl)c1CN(CC(N)=O)C(C)C,16.98,37.74
NC(=O)CN(C(=O)c1cccc(Cl)c1)c1ccccc1,9.806,26.18
CC(C)NS(=O)(=O)NC1CCCCNC1=O (stereo unspecified),23.27,9.142
COCCC1(CO)CCCN(C2CCOCC2)C1 (stereo unspecified),-5.067,6.519
NCc1cc(Br)c2c(c1)OCO2,-2.347,-8.937
CC1C(=O)NCCN1C(=O)c1cc(-c2ccco2)on1 (stereo unspecified),16.89,13.21
Cc1ccc(C(=O)N2CCN(c3nccn3C)CC2)o1,-5.094,6.596
COCCN(Cc1cccs1)C(=O)c1ccncc1Cl,12.72,25.29
COc1ccccc1-c1cc(N)no1,14.85,27.08
COC(=O)C1CC(c2ccccc2)=NO1 (stereo unspecified),84.89,9.488
O=C(NCCO)Nc1cc(F)ccc1N1CCCCC1,1.637,-1.009
Cn1nc(C(=O)NCc2cc(Cl)ccn2)ccc1=O,-8.678,13.26
CC(=O)c1ccc(C(=O)Nc2nnc(C)s2)s1,-5.814,0.3277
O=S(=O)(CCO)Cc1ccccc1Oc1ccccc1,-17.9,-5.607
COCc1cc(=O)[nH]c(C2(N)CCCCC2)n1,4.63,10.13
CC(C)(C)NC(=O)c1ccc(C(=O)NCC2CC2)cc1,5.027,-1.858
CCOC(=O)CC1C(=O)NCCN1CCC#N (stereo unspecified),-5.117,-1.454
CN(Cc1ccc(Cl)s1)C(=O)C1CCN(C(N)=O)CC1,20.42,50.27
CCCOC1CCCN(C(=O)CSc2nc(C)n[nH]2)C1 (stereo unspecified),4.371,13.26
CC(C)(C)C(=O)Nc1cccc(C(=O)NC2CC2)c1,-19.9,12.23
O=C(Nc1ccccc1N1CCCC1=O)C1CCC1,-3.866,7.971
CCCc1cc(N)[nH]n1,12.6,27.31
Cc1cc(C)cc(OCC(=O)N2CCN[C@H](C)C2)c1,-7.099,16.48
N#Cc1ccc(-n2ccc(N)n2)c(F)c1,14.29,14.45
COc1cccc2c1CCN(C(=O)c1cnn(C)c1)C2,18.97,35.88
CN(Cc1ccccc1)CC(O)CN1CCOCC1 (stereo unspecified),-1.892,11.23
CC1(C)CCC(CN)O1 (stereo unspecified),3.003,6.45
N#CC[C@@H](N)c1ccccc1,-15.45,-2.855
CN(C)C1(CNC(=O)c2cc(Br)c[nH]2)CCOCC1,2.846,11.11
O=C(NCCO)c1cc2c(F)cc(Br)cc2[nH]1,58.72,64.99
CN(CC(N)=O)C(=O)c1ccc(O)nc1,-6.319,1.849
CC(=O)NCCNCc1ccc(Br)s1,-4.23,-2.478
CN1C(=O)COc2cc(NC(=O)C3CC=CC3)ccc21,-8.27,-4.962
Cc1ccoc1C(=O)N1CCCC(O)(CN(C)C)CC1 (stereo unspecified),8.889,11.03
Cc1ccncc1S(N)(=O)=O,5.932,9.524
CC1(C(=O)NCc2ccc(Cl)cc2)CCCCC(=O)N1 (stereo unspecified),-16.12,-3.072
CC(=O)N1CCN(C(=O)CCc2cc(Cl)cs2)CC1,24.62,40.38
CC(O)C(=O)NC(N)=O (stereo unspecified),-20.82,-3.688
Cc1ccc(C(=O)Nc2nc(C)cs2)cn1,36.73,44.76
Cc1ccc(C(=O)NCc2ccc3c(c2)OCCO3)o1,72.46,76.36
CC(=O)Nc1ccc(C2=NN=C(NC3CC3)SC2)cc1,-2.725,38.78
CSc1ccc(CN)cc1,10.12,16.02
c1cn2nc(N3CCCC3)ccc2n1,10.3,18.15
C[n+]1ccn(C(=O)N2CCCC2)c1.[I-],22.12,19.01
Cc1cc(C(=O)Nc2ccnc(C)c2Cl)cc(O)n1,-40.75,-44.97
CCCNC(=O)Cn1cc(NC(=O)C(C)(C)C)cn1,-11.16,-2.419
CNC(=O)Nc1cc(Cl)cc2c1OCC2,13.17,9.138
CCNC(=O)N1CCC(=O)N(CC)C2(CCOCC2)C1,-6.118,-5.618
O=C(NCc1cccc(OCC(F)F)n1)C1CCCN1 (stereo unspecified),-10.91,20.88
CC(OC(=O)c1nn(C)c(=O)c2ccccc12)C(N)=O (stereo unspecified),-19.58,-21.53
CCNC(=O)c1cc(N2CCC(COC)CC2)ccn1,39.22,57.59
Cc1cc(F)ccc1C1NCCNC1=O (stereo unspecified),-5.006,0.1474
CC(Cc1cnccn1)N(C)CCCS(=O)(=O)N(C)C (stereo unspecified),-19.59,-9.018
CSCc1noc(CN(C)CCc2ccccn2)n1,15.55,24.03
CCOc1ccccc1C(=O)NCCCC(=O)OC,17.09,31.49
COc1ccc(CNCCn2cccn2)cc1OC,11.64,13.51
CS(=O)(=O)CC1(CNCc2cccc(C#N)c2)CC1,-0.2333,-8.825
Cc1ccc(CNCC(C)O)cc1 (stereo unspecified),-1.897,1.05

Data taken from ChEMBL document CHEMBL3988442, “University of Dundee, Small-Polar-MMV Screening Library” (2021).